# Reference: PMC11967919
# For at least one entry, the source does not settle the construct or the ends of the probe.
# Tested on: His-GhLPF1 (R2R3 MYB) (Gossypium hirsutum)
# Experiment: EMSA
# Details: biotin probe, 50x and 100x unlabeled cold probe used as competitor; Beyotime chemiluminescent EMSA kit (GS009), 6% native PAGE; pH and temperature not stated; recombinant protein; label: biotin (kit-labelled)
sequence,measurement,value
CAATTCACATCAACTCAATGCCTTTATATAACAGCTCTCAAAGGAGCAGGCTCCTT (double strand) [proHB6-probe1],binding result,binds
